# Test results from US20200181195A1.
# Results are given in words; binding and its absence hold for the method and conditions named. For part of these data: Binding can be weak; no strength is given.
# Legend:
# [1] = molecular target: HLA-A*02:01 molecule (HLA-A*02:01 gene product) (human); assay: flow cytometry, T2 cells + purified b2m, peptide dilution series, BB7.2 staining
# [2] = molecular target: HLA-A*24:02 molecule (HLA-A*24:02 gene product) (human); assay: flow cytometry, acid-stripped C1R-A24 cells + purified b2m, peptide dilution series, 17A12 staining
# [3] = molecular target: HLA-A*02:01 molecule (HLA-A*02:01 gene product) (human); assay: stated in the description; underlying assay is the cell-based flow cytometry of Example 1
# [4] = molecular target: HLA-A*24:02 molecule (HLA-A*24:02 gene product) (human); assay: as above
Binder,binding [1],other results
LQRDISEMF [… (Seq. ID No. 6)],no binding (tested: >-3),–
GQDVTSVPV [… (Seq. ID No. 11)],–,binding [2]: no binding (tested: >-3)
HHSDTPTTL [… (Seq. ID No. 7)],no binding (tested: >-3),–
TLAFREGTI [… (Seq. ID No. 9)],no binding (tested: >-3),–
FSAQSGAGV [… (Seq. ID No. 12)],–,binding [2]: no binding (tested: >-3)
STGVSFFFL [… (Seq. ID No. 10)],–,binding [3]: binds; binding [4]: binds

# Continued, in another order:
binding [1],Binder,other results
no binding (tested: >-3),AFREGTINV [… (Seq. ID No. 4)],–
no binding (tested: >-4),SFFFLSFHI [… (Seq. ID No. 8)],–
